In publication PMC5727025:
No constants are given. Whether binding was seen depends on the method and setting. In cells and extracts the contact can be indirect. Some entries that bind do so weakly or less than the wild type.

How the values were obtained:
[1] = molecular target: T1, Interferon regulatory factor 8 (IRF8) (mouse (endogenous in Th9 cells)) (UniProt P23611); assay: proximity ligation; in situ PLA in fixed, permeabilised murine Th9 cells after 24 h of differentiation; dots counted by microscopy
T1 sequence: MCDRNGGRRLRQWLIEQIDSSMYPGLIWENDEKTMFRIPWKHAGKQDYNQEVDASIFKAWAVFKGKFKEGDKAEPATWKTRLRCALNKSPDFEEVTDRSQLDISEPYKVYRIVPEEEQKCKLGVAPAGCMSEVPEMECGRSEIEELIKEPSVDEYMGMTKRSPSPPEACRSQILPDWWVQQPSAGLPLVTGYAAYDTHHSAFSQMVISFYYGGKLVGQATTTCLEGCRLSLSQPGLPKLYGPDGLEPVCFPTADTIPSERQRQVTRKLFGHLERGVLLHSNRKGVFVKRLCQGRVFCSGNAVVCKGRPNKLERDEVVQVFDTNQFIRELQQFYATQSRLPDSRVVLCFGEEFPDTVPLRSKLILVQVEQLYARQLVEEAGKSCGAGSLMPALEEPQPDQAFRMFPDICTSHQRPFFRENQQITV

[2] = molecular target: T2, Interferon regulatory factor 4 (IRF4) (mouse (endogenous in Th9 cells)) (UniProt Q64287); assay: as above
T2 sequence: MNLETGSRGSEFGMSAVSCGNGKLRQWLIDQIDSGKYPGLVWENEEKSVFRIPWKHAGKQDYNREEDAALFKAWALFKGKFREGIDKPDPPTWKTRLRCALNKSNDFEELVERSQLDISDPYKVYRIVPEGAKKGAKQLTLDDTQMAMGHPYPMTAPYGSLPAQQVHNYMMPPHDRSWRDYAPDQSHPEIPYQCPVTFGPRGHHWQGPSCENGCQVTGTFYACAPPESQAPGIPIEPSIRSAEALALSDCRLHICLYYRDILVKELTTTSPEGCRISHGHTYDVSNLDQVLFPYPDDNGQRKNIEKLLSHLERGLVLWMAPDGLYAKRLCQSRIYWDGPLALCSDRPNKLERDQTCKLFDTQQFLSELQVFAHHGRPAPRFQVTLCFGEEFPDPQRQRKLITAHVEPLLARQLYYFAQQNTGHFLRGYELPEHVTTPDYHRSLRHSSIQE

binding [1]: binds
binding [2]: binds
B1: BATF (basic leucine zipper transcription factor, ATF-like) (protein, UniProt O35284 1-125)
chain: MPHSSDSSDSSFSRSPPPGKQDSSDDVRKVQRREKNRIAAQKSRQRQTQKADTLHLESEDLEKQNAALRKEIKQLTEELKYFTSVLSSHEPLCSVLASGTPSPPEVVYSAHAFHQPHISSPRFQP
